No constants are given. Whether binding was seen depends on the method and setting. Binding seen in cells or lysates may run through a third protein. Binding calls can cover weak binding; strength is not graded here. Tags and fused reporters may be left off the sequences shown.
How the values were obtained:
[1] = target: GST-HDAC3; experiment: GST pull-down
[2] = target: GST-HDAC3; experiment: conclusion of Example 3 from the GST pull-down (FIG. 4E)
[3] = target: GST-HDAC3; experiment: GST pull-down from 293T cells transfected with GST-HDAC3 and Flag-sLZIP, immunoblot (FIG. 4E)
[4] = target: GST-PPARγ2; experiment: GST pull-down from 293T cells transfected with GST-PPARγ2 and Flag-sLZIP, immunoblot (FIG. 2B)
[5] = target: GST-PPARγ2; experiment: GST pull-down from 293T cells transfected with GST-PPARγ2 and Flag-sLZIP, without RZD (FIG. 5A); dissociated after 10 nM RZD
[6] = target: GST-HDAC3; experiment: GST pull-down from 293T cells transfected with GST-HDAC3 and Flag-sLZIP (FIG. 5D); HDAC3 stayed bound to sLZIP after 10 nM RZD

Measured: binding

B1: Flag-sLZIP (protein, not shown: small tags and cut ends)
chain: MELELDAGDQDLLAFLLEESGDLGTAPDEAVRAPLDWALPLSEVPSDWEVDDLLCSLLSPPASLNILSSSNPCLVHHDHTYSLPRETVSMDLESESCRKEGTQMTPQHMEELAEQEIARLVLTDEEKSLLEKEGLILPETLPLTKTEEQILKRVRRKIRNKRSAQESRRKKKVYVGGLESRVLKYTAQNMELQNKVQLLEEQNLSLLDQLRKLQAMVIEISNKTSSSSMYSSDTRGSLPAEHGVLSRQLRALPSEDPYQLELPALQSEVPKDSTHQWLDGSDCVLQAPGNTSCLLHYMPQAPSAEPPLEWPFPDLFSEPLCRGPILPLQANLTRKGGWLPTGSPSVILQDRYSG
binds: all assays above
